Experimental data as given in PubChem BioAssay AID493014 (National Center for Advancing Translational Sciences (NCATS), 2011).
In all, about 340,000 compounds went through this assay and about 170 (0.05%) were called active. The shares of active, inactive and inconclusive entries below differ from those in the screen. Calls follow the shape of the dose curve; as a rule, active = well fitted inhibition curve with a large enough effect in the signal ratio, with a control signal flat (not every such curve was filed as active); inconclusive = small, poorly fitted or top-dose-only effect, or effect the other way, or a change in a side signal; inactive = flat fitted curve, though single readings scatter; the % refers to the signal ratio. Where the call is inconclusive, the potency comes from a doubtful curve fit.

Test: qHTS Assay to Find Inhibitors of Chronic Active B-Cell Receptor Signaling;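 as to activity change, negative = inhibition: plate controls were basal doxycycline-induced cells for no effect and cells given 10 µM MG132 for full effect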
Conditions: ABC-DLBCL IkBa-CBG/CBR reporter, luminescence ratio (green luciferase fused to IkBa over red control in TMD8 lymphoma cells), 4 h; activity change, negative = inhibition: at 46.1 µM (top of the series)
Outline: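 Concentration-response series (up to 46 uM) were applied to TMD8 dual-reporter cells for 4 h at 37C with doxycycline. Green/red ratio, after filter-overlap correction, defined %Activity; red signal alone was normalised to basal cells and zero luminescence.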
Potency is read from the fitted curve at half-maximal effect.

SMILES	Potency	activity change, negative = inhibition
C=CCn1c(CSc2nc3ccccc3s2)n[nH]c1=S	inconclusive: 28.2 µM [falling, single point]	
CCOC(=O)CCNC(=O)N1CCCC(C(=O)c2ccc3c(c2)OCO3)C1 (stereo not drawn)		inconclusive: 5.67%
COc1cc(/C=N/Nc2ccc(F)cc2F)cc(OC)c1O	inconclusive: 4.61 µM [falling, full curve]	
CC(C)(C)c1cc(CP(=O)(c2ccccc2)c2ccccc2)cc(C(C)(C)C)c1O		inconclusive: 10.3%
CNC(=O)c1c(NC(=O)c2cc(-c3cc(C)c(C)cc3O)n[nH]2)sc2c1CCCC2		inconclusive: -4.73%
FC(F)(F)c1cc(CO[C@@H]2CCCN[C@@H]2c2ccccc2)cc(C(F)(F)F)c1		inconclusive: -27.7%
Cc1cc(C)nc(Sc2ncnc(N)c2[N+](=O)[O-])n1	inconclusive: 22.4 µM [falling, partial curve]	
O=C1CCC(=O)N1OCCOc1ccccc1		inactive
CC(C)(C)OC(=O)NCc1ccc(CNC(=O)c2nc[nH]c2C(=O)N2CCN(C(=O)OC(C)(C)C)CC2)cc1	inconclusive: 25.9 µM [falling, single point]	
COc1cccc(CN(C(=O)/C=C/c2ccco2)C2CCS(=O)(=O)C2)c1 (stereo not drawn)		inconclusive: 6.2%
COc1cc(/C=C2/C(=O)ON=C2C)ccc1OCc1ccccc1F	inconclusive: 17.8 µM [falling, single point]	
CCOc1ccc(N(CC(=O)NCc2ccc(Cl)cc2)S(=O)(=O)c2ccccc2)cc1		inconclusive: 2.44%
O=C(NC1CCC(O)CC1)C1CCN(S(=O)(=O)c2c(Cl)cccc2Cl)CC1 (stereo not drawn)		inconclusive: 1.49%
CC(=O)N1N=C(c2ccncc2)OC1(Cc1ccccc1)Cc1ccccc1		inconclusive: 10.6%
CC(Sc1nnc(-c2ccccc2F)n1C1CC1)C(N)=O (stereo not drawn)		inconclusive: 5.76%
O=C(Nc1ccnn1C1CCN(Cc2ccc(CO)o2)CC1)c1ccc2c(c1)OCO2		inactive
Cc1cc(C)c2c(N=NN3CCCCC3)[nH]nc2n1		inconclusive: -0.407%
COc1ccc(C2c3c(ncn(CCN4CCOCC4)c3=N)Oc3ccc4ccccc4c32)cc1OC (stereo not drawn)	inconclusive: 8.91 µM [falling, partial curve]	
CCOC(=O)C1=C(N)Oc2c(oc(CO)cc2=O)C1c1ccc(Cl)cc1 (stereo not drawn)	inconclusive: 20 µM [falling, partial curve, poor fit]	
COCCNC(=O)C(OC(=O)CC1Sc2ccccc2NC1=O)c1ccccc1 (stereo not drawn)	inconclusive: 0.82 µM [rising, full curve, poor fit]	
CN(CC(=O)N1CCc2ccccc21)S(=O)(=O)c1cccs1		inactive
COc1ccccc1N1CN(Cc2ccccc2)CNC1=S		inconclusive: -26.3%
COc1ccccc1-n1ccnc(SCC(=O)NCc2ccccc2Cl)c1=O	inconclusive: 23.1 µM [falling, partial curve, poor fit]	
O=C(Nc1ccccc1Br)c1ccccc1-c1ccccc1		inconclusive: -0.326%
CCOCC(=O)Nc1c(C)n(C)n(-c2ccccc2)c1=O		inactive
COc1ccc(CC(=O)n2nc(-c3ccc(Cl)cc3)nc2NCc2ccco2)cc1		inactive

SMILES	Potency	activity change, negative = inhibition
O=C(NCCC1=CCCCC1)c1ccc2c(c1)N(Cc1ccccc1)C(=O)CS2	inconclusive: 5.8 µM [rising, full curve]	
Cc1nn2c(=O)cc(CSc3nc4ccccc4[nH]3)nc2s1	inconclusive: 14.6 µM [falling, partial curve, poor fit]	
CC(=O)Nc1ccc(-c2nc3cc(Cl)ccc3o2)cc1		inconclusive: 10.5%
Cn1c(N)c(C(=O)COC(=O)c2cccc(S(=O)(=O)NCc3ccccc3)c2)c(=O)n(C)c1=O		inactive
CCc1cccc(C)c1NC(=O)c1cc(S(=O)(=O)NCc2ccccc2Cl)ccc1F		inactive
O=C(CCNS(=O)(=O)c1ccc(Br)s1)NC1CCCC1		inactive
CCOC(=O)N1CCN(S(=O)(=O)c2ccc(C(=O)Nc3sc4c(c3C#N)CCC4)cc2)CC1		inactive
Cc1csc(NC(=O)c2ccc3ccccc3n2)n1		inconclusive: -23.4%
CC1Cc2ccccc2N1C(=O)Cn1nc(C(=O)O)c2ccccc2c1=O (stereo not drawn)		inconclusive: -0.048%
CCOc1ccc(C(=O)NCC(=O)OCC(=O)N2CCCCC2)cc1	inconclusive: 16.4 µM [rising, partial curve, poor fit]	
Nc1nc(SCc2ccc([N+](=O)[O-])cc2)nc2nc3c(cc12)CCCC3		inconclusive: 4.68%
CCOc1ccc(NS(=O)(=O)c2cc3c4c(c2)C(C)C(=O)N4CCC3)cc1 (stereo not drawn)		inactive
COc1cccc(Cn2nnc(C(=O)Nc3cc(Cl)ccc3OC)c2N)c1	inconclusive: 6.51 µM [falling, single point]	
O=C(Nc1ccccc1OC(=O)c1ccc(Cl)cc1)c1ccc(Cl)cc1	inconclusive: 18.4 µM [falling, partial curve]	
COCc1cc(C)nc2sc(C(=O)OC(C)C)c(N)c12		inactive
Cc1ccc(Oc2nc3ccccn3c(=O)c2/C=C(\C#N)C(=O)NC2CCS(=O)(=O)C2)cc1 (stereo not drawn)		inactive
CC(C)(C)C(=O)NCc1ccc(C(=O)CN2C(=O)NC3(CCCC3)C2=O)s1		inconclusive: 7.84%
CCC(C)NC(=O)CN(c1ccc(OC)cc1)S(=O)(=O)c1ccc(NC(C)=O)cc1 (stereo not drawn)		inconclusive: -0.225%
CCOc1cc(/C=N/Nc2cc(C)nc(-n3nc(C)cc3C)n2)ccc1O		inconclusive: -14.3%
FC(F)(F)c1ccc(NCc2ccccn2)nc1		inconclusive: 0.977%
Cc1cccc(OCCCCc2c(C)n[nH]c2C)c1		inactive
Cc1cccc(C)c1NC(=O)CNC(=O)c1cnccn1		inconclusive: 5.21%
CCOc1ccc(NCc2nc3ccccc3n2CCOc2ccccc2)cc1	inconclusive: 11.6 µM [falling, partial curve]	
Cn1c(=O)cc(OCCCC(=O)NCCN2CCN(c3ccccc3F)CC2)c2ccccc21		inconclusive: -4.99%
CS(=O)(=O)c1ccc2nc(NC(=O)c3ccccc3)sc2c1	inconclusive: 22.4 µM [falling, partial curve]	
Cc1nc2c3ccccc3nc(NNC(=O)CCC(=O)NCCN3CCN(c4ccccc4)CC3)n2n1		inactive

As entered above.
activity change, negative = inhibition, O=C(NC1CCC(O)CC1)C1CCN(S(=O)(=O)c2c(Cl)cccc2Cl)CC1 (stereo not drawn) is entered as inconclusive: 1.49%
activity change, negative = inhibition, FC(F)(F)c1ccc(NCc2ccccn2)nc1 is entered as inconclusive: 0.977%

(cont.)

SMILES	Potency	activity change, negative = inhibition
Cc1ccc(NS(=O)(=O)c2ccc3[nH]c(=O)oc3c2)c(C)c1		inactive
N#Cc1c(-c2ccccc2)cc(-c2ccc(O)cc2)nc1N	inconclusive: 35.5 µM [falling, partial curve, poor fit]	
COc1cc2c(cc1OC)C(Cc1ccc(O)cc1)N(C)CC2 (stereo not drawn)		inconclusive: -24.8%
CN(C)/C=C(\C#N)C(=O)N/N=C/c1ccc(Cl)cc1		inactive
N#Cc1cc2c(nc1SCC(=O)Nc1sc3c(c1C#N)CCC3)CCC2		inactive
O=C(Nc1ccccc1N1CCN(C(=O)c2ccc(Cl)cc2)CC1)c1cccnc1	inconclusive: 6.51 µM [falling, full curve]	
c1cc2c(cc1C1CCCCC1)c1c3n2CCCNC3CCC1 (stereo not drawn)	inconclusive: 18.4 µM [falling, partial curve]	
COC(=O)[C@H](Cc1ccccc1)NC(=O)O[C@@H]1C(=O)c2cc(OC)ccc2O[C@H]1c1ccc(OC)c(Br)c1		inconclusive: -0.0022%
O=C(O)/C=C/C(=O)Nc1ccccc1C(=O)OCC(=O)c1ccc2c(c1)OCCO2	inconclusive: 25.1 µM [falling, single point]	
Cc1ccc(/C=C(\C#N)C(=O)N2CCCC2)c(C)c1		inconclusive: 0.854%
COc1ccc(OC)c(-c2csc(NC(=O)C3COc4ccccc4O3)n2)c1 (stereo not drawn)	inconclusive: 20 µM [rising, partial curve, poor fit]	
CCOc1ccc(-c2c(C(=O)N/N=C/c3ccc(Cl)cc3)nnn2-c2nonc2N)cc1		inconclusive: 20.1%
O=C(CN1CCN(S(=O)(=O)c2ccc(F)cc2)CC1)NCC1(N2CCOCC2)CCCCC1		inactive
CC(OC(=O)c1ccc2c(c1)C(=O)N(Cc1ccncc1)C2=O)C(=O)Nc1cccc(Cl)c1Cl (stereo not drawn)		inconclusive: -3.68%
CCN(CC)S(=O)(=O)c1ccc(N2CCN(C)CC2)c(NC(=O)Nc2ccc(C)cc2)c1		inconclusive: 29.8%
Cc1ccccc1NC(=O)c1ccc2nccnc2c1	inconclusive: 20 µM [falling, single point]	
Cc1nnc(NC(=O)c2ccc(S(=O)(=O)N3CCCCC3C)cc2)o1 (stereo not drawn)	inconclusive: 35.5 µM [falling, single point]	
O=C(NC(=S)N1CCN(c2ccccn2)CC1)c1ccco1		inconclusive: -26.1%
O=C(O)c1cccc(CSc2nnc(COc3ccccc3)o2)c1		inconclusive: -1.09%
CN(C/C=C/c1ccccc1[N+](=O)[O-])Cc1ccccc1		inactive
Cc1ccccc1CNCc1ccc2c(c1)OCO2		inconclusive: -0.0362%
COc1ccc(/C=N/n2c(SC)nnc(C(C)(C)C)c2=O)cc1		inconclusive: 3.36%
CCOC(=O)N1CCC(NC(=O)c2cc3c(-c4ccc(OC)c(OC)c4)nn(C)c3s2)CC1		inactive
CCOC(=O)N1CCN(c2nc3ccccn3c(=O)c2C=O)CC1	inconclusive: 12.6 µM [falling, partial curve, poor fit]	
CC(=O)C1=C(O)C(=O)N(c2ccc(C(=O)O)cc2)C1c1ccc([N+](=O)[O-])cc1 (stereo not drawn)		inconclusive: -14.6%
Cc1cc(/C=N/NC(=O)c2ccccn2)c(C)n1-c1cccc([N+](=O)[O-])c1	inconclusive: 11.2 µM [falling, partial curve]	

Arranged by length of the SMILES (descending): 20 of the compounds above.
SMILES	Potency	activity change, negative = inhibition
COC(=O)[C@H](Cc1ccccc1)NC(=O)O[C@@H]1C(=O)c2cc(OC)ccc2O[C@H]1c1ccc(OC)c(Br)c1		inconclusive: -0.0022%
CC(OC(=O)c1ccc2c(c1)C(=O)N(Cc1ccncc1)C2=O)C(=O)Nc1cccc(Cl)c1Cl (stereo not drawn)		inconclusive: -3.68%
CC(=O)C1=C(O)C(=O)N(c2ccc(C(=O)O)cc2)C1c1ccc([N+](=O)[O-])cc1 (stereo not drawn)		inconclusive: -14.6%
CCOC(=O)N1CCC(NC(=O)c2cc3c(-c4ccc(OC)c(OC)c4)nn(C)c3s2)CC1		inactive
CCN(CC)S(=O)(=O)c1ccc(N2CCN(C)CC2)c(NC(=O)Nc2ccc(C)cc2)c1		inconclusive: 29.8%
O=C(CN1CCN(S(=O)(=O)c2ccc(F)cc2)CC1)NCC1(N2CCOCC2)CCCCC1		inactive
CCOc1ccc(-c2c(C(=O)N/N=C/c3ccc(Cl)cc3)nnn2-c2nonc2N)cc1		inconclusive: 20.1%
O=C(O)/C=C/C(=O)Nc1ccccc1C(=O)OCC(=O)c1ccc2c(c1)OCCO2	inconclusive: 25.1 µM [falling, single point]	
O=C(Nc1ccccc1N1CCN(C(=O)c2ccc(Cl)cc2)CC1)c1cccnc1	inconclusive: 6.51 µM [falling, full curve]	
COc1ccc(OC)c(-c2csc(NC(=O)C3COc4ccccc4O3)n2)c1 (stereo not drawn)	inconclusive: 20 µM [rising, partial curve, poor fit]	
Cc1ccc(NS(=O)(=O)c2ccc3[nH]c(=O)oc3c2)c(C)c1		inactive
N#Cc1cc2c(nc1SCC(=O)Nc1sc3c(c1C#N)CCC3)CCC2		inactive
COc1ccc(/C=N/n2c(SC)nnc(C(C)(C)C)c2=O)cc1		inconclusive: 3.36%
CN(C/C=C/c1ccccc1[N+](=O)[O-])Cc1ccccc1		inactive
CN(C)/C=C(\C#N)C(=O)N/N=C/c1ccc(Cl)cc1		inactive
COc1cc2c(cc1OC)C(Cc1ccc(O)cc1)N(C)CC2 (stereo not drawn)		inconclusive: -24.8%
O=C(NC(=S)N1CCN(c2ccccn2)CC1)c1ccco1		inconclusive: -26.1%
c1cc2c(cc1C1CCCCC1)c1c3n2CCCNC3CCC1 (stereo not drawn)	inconclusive: 18.4 µM [falling, partial curve]	
Cc1ccccc1NC(=O)c1ccc2nccnc2c1	inconclusive: 20 µM [falling, single point]	
Cc1ccccc1CNCc1ccc2c(c1)OCO2		inconclusive: -0.0362%
